We go through one compound from patent US20240280563A1, “SYSTEMS AND METHODS FOR ION CHANNEL KINETICS ANALYSIS IN CLUSTERS OF ION CHANNELS” (Ohio State Innovation Foundation, priority 2023, published 2024).

The chains behind the UniProt entries cited, without tags or fusion partners.
UniProt Q14524, whole entry: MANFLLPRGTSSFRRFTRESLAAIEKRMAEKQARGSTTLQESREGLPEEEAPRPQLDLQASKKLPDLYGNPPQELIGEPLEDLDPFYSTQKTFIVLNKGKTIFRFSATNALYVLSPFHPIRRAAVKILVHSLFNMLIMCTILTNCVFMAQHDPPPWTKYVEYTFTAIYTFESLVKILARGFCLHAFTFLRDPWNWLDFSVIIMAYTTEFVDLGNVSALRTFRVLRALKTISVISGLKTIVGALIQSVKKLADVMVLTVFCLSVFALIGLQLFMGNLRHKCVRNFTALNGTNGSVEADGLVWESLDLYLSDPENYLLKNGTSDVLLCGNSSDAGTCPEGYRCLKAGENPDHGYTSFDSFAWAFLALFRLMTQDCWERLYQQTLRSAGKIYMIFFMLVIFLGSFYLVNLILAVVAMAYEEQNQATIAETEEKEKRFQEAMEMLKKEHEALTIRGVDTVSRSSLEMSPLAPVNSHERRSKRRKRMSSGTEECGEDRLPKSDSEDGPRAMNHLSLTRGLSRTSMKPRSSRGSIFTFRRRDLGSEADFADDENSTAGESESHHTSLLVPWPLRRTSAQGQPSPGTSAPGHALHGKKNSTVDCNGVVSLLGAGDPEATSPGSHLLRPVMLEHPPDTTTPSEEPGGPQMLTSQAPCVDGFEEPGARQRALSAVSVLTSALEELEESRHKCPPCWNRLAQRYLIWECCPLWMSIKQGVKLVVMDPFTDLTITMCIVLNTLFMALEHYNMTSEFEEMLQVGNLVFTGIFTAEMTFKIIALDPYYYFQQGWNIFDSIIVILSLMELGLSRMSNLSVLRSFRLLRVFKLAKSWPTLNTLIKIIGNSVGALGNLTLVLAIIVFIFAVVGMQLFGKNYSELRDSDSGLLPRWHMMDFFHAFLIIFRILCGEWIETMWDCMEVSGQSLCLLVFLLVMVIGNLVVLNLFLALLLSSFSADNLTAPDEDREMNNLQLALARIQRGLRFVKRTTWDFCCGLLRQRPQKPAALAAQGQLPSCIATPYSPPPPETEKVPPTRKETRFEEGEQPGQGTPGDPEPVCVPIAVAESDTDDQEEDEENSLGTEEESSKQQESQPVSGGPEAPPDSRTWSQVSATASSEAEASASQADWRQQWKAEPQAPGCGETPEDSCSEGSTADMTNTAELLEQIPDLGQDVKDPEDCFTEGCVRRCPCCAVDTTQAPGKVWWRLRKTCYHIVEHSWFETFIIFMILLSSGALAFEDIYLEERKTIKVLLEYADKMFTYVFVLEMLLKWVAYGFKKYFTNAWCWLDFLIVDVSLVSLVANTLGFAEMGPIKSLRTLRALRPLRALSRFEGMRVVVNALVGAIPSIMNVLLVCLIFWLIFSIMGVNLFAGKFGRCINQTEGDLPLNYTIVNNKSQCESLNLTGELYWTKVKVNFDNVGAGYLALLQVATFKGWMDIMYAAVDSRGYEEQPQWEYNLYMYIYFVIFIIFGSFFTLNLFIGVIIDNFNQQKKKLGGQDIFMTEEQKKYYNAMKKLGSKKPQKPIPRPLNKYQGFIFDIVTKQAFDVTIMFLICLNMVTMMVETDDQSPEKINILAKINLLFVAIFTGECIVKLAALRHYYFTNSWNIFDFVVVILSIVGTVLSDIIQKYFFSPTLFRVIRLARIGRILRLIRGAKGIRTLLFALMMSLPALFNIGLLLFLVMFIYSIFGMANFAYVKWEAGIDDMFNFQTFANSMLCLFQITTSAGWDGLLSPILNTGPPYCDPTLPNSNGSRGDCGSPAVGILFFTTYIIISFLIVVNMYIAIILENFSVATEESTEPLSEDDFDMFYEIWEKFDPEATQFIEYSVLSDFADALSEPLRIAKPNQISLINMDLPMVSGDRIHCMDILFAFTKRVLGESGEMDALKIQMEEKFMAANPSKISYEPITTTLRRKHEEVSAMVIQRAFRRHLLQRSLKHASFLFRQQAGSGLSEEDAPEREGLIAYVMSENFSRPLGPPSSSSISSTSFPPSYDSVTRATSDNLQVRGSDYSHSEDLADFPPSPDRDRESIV

Structures are written as SMILES.

The assay addresses NaV1.5 (Homo sapiens, UniProt Q14524). Conditions: lidocaine 50 Um, 5 minute incubation; multichannel vs single channel patches; ratio of ensemble average peak current after lidocaine (Ilido) to before (Ictr).

As to `CCN(CC)CC(=O)Nc1c(C)cccc1C` [lidocaine], the “potency of lidocaine lower for channel operating in clusters relative to channels operating outside of clusters” value is on record as about 40%.
